Experimental data from the supplement of paper PMC8728848.
The list shows a part of the results.

How the values were obtained:
Assay in all cases: glycan array binding signal (z-score within array); higher = stronger binding
Conditions in all cases: glycan notation: IUPAC condensed, linker removed
[1] = molecular target: Fuc(a1-2)[Gal(a1-4)]Gal(b1-4)GlcNAc
Outline: (§1)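 The Consortium for Functional Glycomics database supplied 3228 glycan arrays, of which those lacking an available protein sequence were dropped. The binding signal, a within-array Z-score, was averaged across arrays of the same protein sequence and across linkers. Negative scores can be read as non-binding.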

[2] = molecular target: Fuc(a1-2)[GalNAc(a1-3)]Gal
Outline: as §1

[3] = molecular target: Fuc(a1-2)[GalNAc(a1-3)]Gal(b1-3)GalNAc(a1-3)[Fuc(a1-2)]Gal(b1-4)GlcNAc
Outline: as §1

[4] = molecular target: Fuc(a1-2)[GalNAc(a1-3)]Gal(b1-3)GalNAc(b1-3)Gal(a1-4)Gal(b1-4)Glc
Outline: as §1

[5] = molecular target: Fuc(a1-2)[GalNAc(a1-3)]Gal(b1-3)GlcNAc
Outline: as §1

[6] = molecular target: Fuc(a1-2)[GalNAc(a1-3)]Gal(b1-3)GlcNAc(b1-2)Man(a1-3)[Fuc(a1-2)[GalNAc(a1-3)]Gal(b1-3)GlcNAc(b1-2)Man(a1-6)]Man(b1-4)GlcNAc(b1-4)GlcNAc
Outline: as §1

[7] = molecular target: Fuc(a1-2)[GalNAc(a1-3)]Gal(b1-3)GlcNAc(b1-2)Man(a1-3)[Fuc(a1-2)[GalNAc(a1-3)]Gal(b1-3)GlcNAc(b1-2)Man(a1-6)]Man(b1-4)GlcNAc(b1-4)[Fuc(a1-6)]GlcNAc
Outline: as §1

[8] = molecular target: Fuc(a1-2)[GalNAc(a1-3)]Gal(b1-3)GlcNAc(b1-3)GalNAc
Outline: as §1

[9] = molecular target: Fuc(a1-2)[GalNAc(a1-3)]Gal(b1-3)GlcNAc(b1-6)GalNAc
Outline: as §1

[10] = molecular target: Fuc(a1-2)[GalNAc(a1-3)]Gal(b1-4)Glc
Outline: as §1

[11] = molecular target: Fuc(a1-2)[GalNAc(a1-3)]Gal(b1-4)GlcNAc
Outline: as §1

[12] = molecular target: Fuc(a1-2)[GalNAc(a1-3)]Gal(b1-4)GlcNAc(b1-2)Man
Outline: as §1

[13] = molecular target: Fuc(a1-2)[GalNAc(a1-3)]Gal(b1-4)GlcNAc(b1-2)Man(a1-3)[Fuc(a1-2)[GalNAc(a1-3)]Gal(b1-4)GlcNAc(b1-2)Man(a1-6)]Man(b1-4)GlcNAc(b1-4)GlcNAc
Outline: as §1

[14] = molecular target: Fuc(a1-2)[GalNAc(a1-3)]Gal(b1-4)GlcNAc(b1-2)Man(a1-3)[Fuc(a1-2)[GalNAc(a1-3)]Gal(b1-4)GlcNAc(b1-2)Man(a1-6)]Man(b1-4)GlcNAc(b1-4)[Fuc(a1-6)]GlcNAc
Outline: as §1

[15] = molecular target: Fuc(a1-2)[GalNAc(a1-3)]Gal(b1-4)GlcNAc(b1-3)Gal(b1-4)GlcNAc
Outline: as §1

[16] = molecular target: Fuc(a1-2)[GalNAc(a1-3)]Gal(b1-4)GlcNAc(b1-3)Gal(b1-4)GlcNAc(b1-3)Gal(b1-4)GlcNAc
Outline: as §1

[17] = molecular target: Fuc(a1-2)[GalNAc(a1-3)]Gal(b1-4)GlcNAc(b1-3)GalNAc
Outline: as §1

[18] = molecular target: Fuc(a1-2)[GalNAc(a1-3)]Gal(b1-4)GlcNAc(b1-3)[Fuc(a1-2)[GalNAc(a1-3)]Gal(b1-4)GlcNAc(b1-6)]GalNAc
Outline: as §1

[19] = molecular target: Fuc(a1-2)[GalNAc(a1-3)]Gal(b1-4)GlcNAc(b1-6)GalNAc
Outline: as §1

[20] = molecular target: Fuc(a1-2)[GalNAc(a1-3)]Gal(b1-4)[Fuc(a1-3)]GlcNAc
Outline: as §1

[21] = molecular target: Fuc(a1-2)[GalNAc(a1-3)]Gal(b1-4)[Fuc(a1-3)]GlcNAc(b1-3)GalNAc
Outline: as §1

[22] = molecular target: Fuc(a1-2)[GalNAc(a1-4)]Gal(b1-4)GlcNAc
Outline: as §1

[23] = molecular target: Fuc(a1-2)[GalNAc(b1-3)]Gal
Outline: as §1

Fuc(a1-3)GlcNAc = molecular target: Fuc(a1-3)GlcNAc
Outline: as §1

[24] = molecular target: Fuc(a1-3)[Gal(b1-4)]Glc6S
Outline: as §1

[25] = molecular target: Fuc(a1-3)[Gal(b1-4)]GlcNAc
Outline: as §1

[26] = molecular target: Fuc(a1-3)[Gal(b1-4)]GlcNAc(b1-2)Man
Outline: as §1

[27] = molecular target: Fuc(a1-3)[Gal(b1-4)]GlcNAc(b1-2)Man(a1-3)[Fuc(a1-3)[Gal(b1-4)]GlcNAc(b1-2)Man(a1-6)]Man(b1-4)GlcNAc(b1-4)GlcNAc
Outline: as §1

[28] = molecular target: Fuc(a1-3)[Gal(b1-4)]GlcNAc(b1-2)Man(a1-3)[Fuc(a1-3)[Gal(b1-4)]GlcNAc(b1-2)Man(a1-6)]Man(b1-4)GlcNAc(b1-4)[Fuc(a1-6)]GlcNAc
Outline: as §1

[29] = molecular target: Fuc(a1-3)[Gal(b1-4)]GlcNAc(b1-3)Gal(b1-3)[Fuc(a1-4)]GlcNAc
Outline: as §1

[30] = molecular target: Fuc(a1-3)[Gal(b1-4)]GlcNAc(b1-3)Gal(b1-4)[Fuc(a1-3)]GlcNAc
Outline: as §1

[31] = molecular target: Fuc(a1-3)[Gal(b1-4)]GlcNAc(b1-3)Gal(b1-4)[Fuc(a1-3)]GlcNAc(b1-3)Gal(b1-4)[Fuc(a1-3)]GlcNAc
Outline: as §1

[32] = molecular target: Fuc(a1-3)[Gal(b1-4)]GlcNAc(b1-3)GalNAc
Outline: as §1

[33] = molecular target: Fuc(a1-3)[Gal(b1-4)]GlcNAc(b1-6)GalNAc
Outline: as §1

[34] = molecular target: Fuc(a1-3)[Gal(b1-4)]GlcNAc(b1-6)[Gal(b1-3)GlcNAc(b1-3)]Gal(b1-4)Glc
Outline: as §1

[35] = molecular target: Fuc(a1-3)[Gal(b1-4)]GlcNAc6S
Outline: as §1

[36] = molecular target: Fuc(a1-3)[Gal3S(b1-4)]Glc
Outline: as §1

[37] = molecular target: Fuc(a1-3)[Gal3S(b1-4)]GlcNAc
Outline: as §1

B1: PX14375A-pdi-503-28-503 (Parabacteroides distasonis) (protein)
chain: PLGSPEAGDISEERQAFLRLTAVYSVMKDFRYTWSMQCFGDVLSNDATYSGSSNDAQTFTLLENYQYQADHTEILNKYRYSYQCINKANLFIRDMEMADDALFSKYDKEQMIGEAKFIRAYTYFELVKTFGGVPCYTGVLDLDHERLGRASVEEIYSVIEQDLNDAVSVLPKKSEVANYESSYAGRITKGAAIAMQTRIYLYEKKYDEVKKAFEKFQNECGGEYSLVAPEDYTWQFSLDGEHCSSSILEVNMYNSSTQSSYNVNNGNRHVLMSMPRNMTIGFGCAQPTQALADAYDAEGDVIRKKTTLLSTEEAIEIETAAKGDVAPVTDDRTGWYNRKLYLAPGQREENRGNNQPTNLRLIRLAEVYLNYAEACYFSGDIANAQKYLNEVRSHVNLAPKNHTGSQLFEDIMNERHLEFGMEGFRFFDVVRVGWGEKVFNGTKKAEFGAKTPFSAGAEVLPIPQTEIDISDGLITN
glycan array binding signal (z-score) [1]: 0.557
glycan array binding signal (z-score) [2]: -0.531
glycan array binding signal (z-score) [3]: -0.157
glycan array binding signal (z-score) [4]: -0.664
glycan array binding signal (z-score) [5]: -0.172
glycan array binding signal (z-score) [6]: -0.446
glycan array binding signal (z-score) [7]: -0.166
glycan array binding signal (z-score) [8]: -0.391
glycan array binding signal (z-score) [9]: -0.687
glycan array binding signal (z-score) [10]: -0.085
glycan array binding signal (z-score) [11]: 0.161
glycan array binding signal (z-score) [12]: -0.235
glycan array binding signal (z-score) [13]: 0.123
glycan array binding signal (z-score) [14]: 0.098
glycan array binding signal (z-score) [15]: 0.005
glycan array binding signal (z-score) [16]: 0.191
glycan array binding signal (z-score) [17]: -0.359
glycan array binding signal (z-score) [18]: -0.429
glycan array binding signal (z-score) [19]: -1.03
glycan array binding signal (z-score) [20]: -0.827
glycan array binding signal (z-score) [21]: -0.614
glycan array binding signal (z-score) [22]: -0.304
glycan array binding signal (z-score) [23]: -0.705
glycan array binding signal (z-score) (Fuc(a1-3)GlcNAc): -0.753
glycan array binding signal (z-score) [24]: 0.278
glycan array binding signal (z-score) [25]: -0.242
glycan array binding signal (z-score) [26]: 0.074
glycan array binding signal (z-score) [27]: 0.397
glycan array binding signal (z-score) [28]: -0.548
glycan array binding signal (z-score) [29]: -0.721
glycan array binding signal (z-score) [30]: -0.516
glycan array binding signal (z-score) [31]: -0.089
glycan array binding signal (z-score) [32]: 1.12
glycan array binding signal (z-score) [33]: -0.205
glycan array binding signal (z-score) [34]: -0.522
glycan array binding signal (z-score) [35]: 0.08
glycan array binding signal (z-score) [36]: -0.451
glycan array binding signal (z-score) [37]: -0.883
